The supplement of paper PMC3682954
Several values for one entry are separate records, joined by “and”; a condition that tells them apart may be missing. Equal values may be shown once. Where a name gives a salt, the structure may show the parent alone. ± gives the standard deviation of the averaged measurements. Some of the results follow. Most values come without repeats; read them as rough.

Tested on: RAW 264.7
Assay: cell viability (MTT) relative to vehicle control; higher = more viable cells
Settings: stimulus: HMGB1 5 ug/ml, 18 h
[1] = compound concentration: 1 ug/ml

Compound	cell viability (compound concentration: 3 uM) [%]	cell viability [1]
CC(Cc1ccccc1)NCCC(c1ccccc1)c1ccccc1 (configuration not stated) [Prenylamine lactate]	87.1	–
O=c1cccc2n1CC1CC2CN(CCO)C1 (configuration not stated)	–	96.2% and 96.3%
Cc1cccc(C)c1NC1=NCCCS1 [Xylazine hydrochloride]	109	–
Cc1cccc(C)c1NC1=NCCCS1 [Xylazine]	105 ± 3.9	–
Cc1cccc(C)c1NC1=NCCCS1	106	–
COc1cc2c(cc1OC)C1CC(=O)C(CC(C)C)CN1CC2 (configuration not stated) [Tetrabenazine]	115	–
CCCCC/C=C\C/C=C\C/C=C\C/C=C\CCCC(=O)Nc1ccc(O)cc1	92	–
CCNC(=O)[C@H]1O[C@@H](n2cnc3c(N)ncnc32)[C@H](O)[C@@H]1O [5'-N-Ethylcarboxamidoadenosine]	94.6	–
CC1(C)S[C@@H]2[C@H](N)C(=O)N2[C@H]1C(=O)O [(+)-6-Aminopenicillanic acid]	–	106%
CC(=O)OCC1=C(C(=O)O)N2C(=O)[C@@H](NC(=O)CCC[C@@H](N)C(=O)O)[C@H]2SC1	99.2	–
O=C1CN=C(c2ccccc2)c2cc([N+](=O)[O-])ccc2N1 [Nitrazepam]	93.2	–
Cc1ccc(S(=O)(=O)N[C@@H](CCCCN)C(=O)CCl)cc1 [Na-p-Tosyl-L-lysine chloromethyl ketone hydrochloride]	107	–
CCCN1CCC[C@@H](c2cccc(O)c2)C1 [S(-)-3PPP hydrochloride]	103	–
CN1C(=O)COc2c(C(=O)NC3CN4CCC3CC4)cc(Cl)cc21 (configuration not stated) [Azasetron]	98.2	–
Cc1ccc(O)cc1.Cc1cccc(O)c1.Cc1ccccc1O	98.2	–
CCNC1(c2cccs2)CCCCC1=O (configuration not stated) [Tiletamine hydrochloride]	77.7	–
C[C@@H]1CC[C@H]2[C@@H](C)C(=O)O[C@@H]3O[C@@]4(C)CC[C@@H]1[C@]32OO4 [Artemisinin]	96.3 ± 8.8	83.1%
C[C@@H]1CC[C@H]2[C@@H](C)C(=O)O[C@@H]3O[C@@]4(C)CC[C@@H]1[C@]32OO4	101	–
CC[C@H]1[C@@H]2C[C@H]3[C@@H]4N(C)c5ccccc5[C@]45C[C@@H]([C@@H]2[C@H]5O)N3[C@@H]1O	107	–
CS(=N)(=O)CC[C@H](N)C(=O)O (stereo partly drawn) [L-Methionine sulfoximine]	102	–
CCC1(c2cccc(O)c2)CCCCN(C)C1 (configuration not stated) [Meptazinol hydrochloride]	79.2	–
CNC(C)C(O)c1ccccc1 (configuration not stated)	99.9	–
CC(C)(C)C(=O)C(Oc1ccc(Cl)cc1)n1cncn1 (configuration not stated)	101	–
CC[C@H]1CN2CCc3cc(OC)c(OC)cc3[C@@H]2C[C@@H]1C[C@H]1NCCc2cc(OC)c(OC)cc21 [(+)-Emetine dihydrochloride hydrate]	–	14.8%
CC[C@H]1CN2CCc3cc(OC)c(OC)cc3[C@@H]2C[C@@H]1C[C@H]1NCCc2cc(OC)c(OC)cc21 [Emetine dihydrochloride hydrate]	1.64	–
CC[C@H]1CN2CCc3cc(OC)c(OC)cc3[C@@H]2C[C@@H]1C[C@H]1NCCc2cc(OC)c(OC)cc21	9.18 ± 2.4	–

Full records as entered above:
O=C1CN=C(c2ccccc2)c2cc([N+](=O)[O-])ccc2N1 [Nitrazepam] as listed: cell viability (compound concentration: 3 uM) [%]: 93.2
C[C@@H]1CC[C@H]2[C@@H](C)C(=O)O[C@@H]3O[C@@]4(C)CC[C@@H]1[C@]32OO4 [Artemisinin] as listed: cell viability (compound concentration: 3 uM) [%]: 96.3 ± 8.8; cell viability [1]: 83.1%
CCC1(c2cccc(O)c2)CCCCN(C)C1 (configuration not stated) [Meptazinol hydrochloride] as listed: cell viability (compound concentration: 3 uM) [%]: 79.2
CC(=O)OCC1=C(C(=O)O)N2C(=O)[C@@H](NC(=O)CCC[C@@H](N)C(=O)O)[C@H]2SC1 as listed: cell viability (compound concentration: 3 uM) [%]: 99.2

More records follow.

Compound	cell viability (compound concentration: 3 uM) [%]	cell viability [1]
COc1cc([C@@H]2c3cc4c(cc3[C@H](O)[C@H]3COC(=O)[C@H]23)OCO4)cc(OC)c1OC [Podophyllotoxin]	92.9 ± 16	78.1%
COc1cc([C@@H]2c3cc4c(cc3[C@H](O)[C@H]3COC(=O)[C@H]23)OCO4)cc(OC)c1OC	84.5	–
CCN(C(C)=O)c1cccc(-c2ccnc3c(C#N)cnn23)c1 [Zaleplon]	106 ± 8	–
NCCc1c[nH]c2ccc(O)cc12 [Serotonin hydrochloride]	102 ± 6	84.5%
C[C@]12CC[C@H](O)CC1=CC[C@@H]1[C@@H]2CC[C@@]2(C)[C@H]1CC[C@]2(C)O	94.8	–
O=c1cccc2n1CC1CC2CN2CCCCC12 (configuration not stated) [Thermopsine]	–	97.8%
CN1[C@@H](C[C@@H](O)c2ccccc2)CCC[C@H]1C[C@H](O)c1ccccc1 [Lobelanidine hydrochloride]	113	–
COc1ccc(C[C@H]2NC[C@H](O)[C@H]2OC(C)=O)cc1 [Anisomycin]	–	5.34%
CCCN(CCC)CCc1ccc(O)c(O)c1 [Dipropyldopamine hydrobromide]	94.1	–
Ic1ccccc1CNC1C2CCN(CC2)C1C(c1ccccc1)c1ccccc1 [L-703,606 oxalate salt hydrate]	87.9	–
COc1ccc2c(c1)[nH]c1c(C)nccc12 [Harmine]	100	100%
COc1ccc2c(c1)[nH]c1c(C)nccc12 [Harmine hydrochloride]	120	–
OC[C@@H](O)[C@H]1O[C@@H]2O[C@H](C(Cl)(Cl)Cl)O[C@@H]2[C@H]1O	112	–
C[N+]12CCC(CC1)C(OC(=O)C(O)(c1ccccc1)c1ccccc1)C2 (configuration not stated)	101	–
C[N+]12CCC(CC1)C(OC(=O)C(O)(c1ccccc1)c1ccccc1)C2 (configuration not stated) [Clidinium bromide]	71.5	–
CN1C(=O)CN=C(c2ccccc2)c2cc([N+](=O)[O-])ccc21 [Nimetazepam]	94.5	–
CCCN1CCc2cc(O)cc3c2[C@H]1Cc1ccc(O)c(O)c1-3 [R(-)-2,10,11-Trihydroxy-N-propylnoraporphine hydrobromide]	96.1	–
CC(CC(C(N)=O)(c1ccccc1)c1ccccc1)N(C)C (configuration not stated)	109	–
C[C@@]12N[C@@H](Cc3ccccc31)c1ccccc12 [(-)-MK 801 hydrogen maleate]	99	–
C[C@@]12N[C@@H](Cc3ccccc31)c1ccccc12 [(-)-MK-801 hydrogen maleate]	119	–
C[C@]12CC[C@H]3[C@@H](CCC4=CC(=O)CC[C@@]43C)[C@@H]1CC[C@H]2O [Epitestosterone]	–	103%
CCCN(CCC)[C@@H]1CCc2cccc(O)c2C1 [R-(+)-8-Hydroxy-DPAT hydrobromide]	103	–
C#CCN[C@H](C)Cc1ccccc1 [R-(-)-Desmethyldeprenyl hydrochloride]	95.6	–
C[C@H]1C(=O)O[C@@H]2CCN3CC=C(COC(=O)[C@](C)(O)[C@]1(C)O)[C@H]23 [Monocrotaline]	–	96.1%
COC(=O)C(c1ccccc1)C1CCCCN1 (configuration not stated)	97.8	–
C=C(C)[C@@H]1[C@H]2OC(=O)[C@@H]1[C@]1(O)C[C@H]3OC34C(=O)O[C@H]2[C@@]41C.CC(C)(O)[C@@H]1[C@H]2OC(=O)[C@@H]1[C@]1(O)C[C@H]3OC34C(=O)O[C@H]2[C@@]41C (some centres not stated) [Picrotoxin]	101	–

Compound	cell viability (compound concentration: 3 uM) [%]	cell viability [1]
CC(=O)OCC1=C(C(=O)O)N2C(=O)[C@@H](N)[C@H]2SC1 [Cephalosporanic acid, 7-amino]	113	–
C/C=C(/C)C(=O)O[C@H]1CC[C@@]2(C)[C@@H]3CC[C@H]4[C@]5(O)C[C@H](O)[C@@]6(O)[C@@H](CN7C[C@@H](C)CC[C@H]7[C@@]6(C)O)[C@]5(O)C[C@]42O[C@]13O	95.7	–
CO[C@]12C[C@@H](COC(=O)c3cncc(Br)c3)CN(C)[C@@H]1Cc1cn(C)c3cccc2c13 [Nicergoline,]	–	99.9%
CO[C@]12C[C@@H](COC(=O)c3cncc(Br)c3)CN(C)[C@@H]1Cc1cn(C)c3cccc2c13	109	–
CO[C@]12C[C@@H](COC(=O)c3cncc(Br)c3)CN(C)[C@@H]1Cc1cn(C)c3cccc2c13 [Nicergoline]	103 ± 2.5	–
CN(C)C(=S)SSC(=S)N(C)C	95.7	–
CC(C)C[C@H](CN)CC(=O)O	115	–
O=CN1CCCC[C@@H]1[C@@H]1CC[C@@H]2CCCCN2C1 [Leontiformine HBr]	–	93.8%
CC1(C(=O)O)C2CCC(O2)C1(C)C(=O)O (configuration not stated) [Cantharidic Acid]	37.1	–
CC(C)(C)NCC(O)c1ccccc1Cl (configuration not stated)	111	–
CC(C)(C)NCC(O)c1ccccc1Cl (configuration not stated) [Tulobuterol hydrochloride]	110	–
CC(C)(C)NCC(O)c1ccccc1Cl (configuration not stated) [Tulobuterol]	94.7 ± 4	–
C[C@]12Cc3c[nH]nc3C[C@@H]1CC[C@@H]1[C@@H]2CC[C@@]2(C)[C@H]1CC[C@]2(C)O [Stanozolol]	104 ± 18	–
c1ccc(C2(c3ccccc3)CC2C2=NCCN2)cc1 (configuration not stated) [Cibenzoline succinate]	95.9	–
CCCN(CCC)C1CCc2ccc(O)cc2C1 (stereo not drawn) [R-(+)-7-Hydroxy-DPAT hydrobromide]	101	–
C/C=C1\C[C@@H](C)[C@](O)(CO)C(=O)OCC2=CCN3CC[C@@H](OC1=O)[C@@H]23 [Retrorsine]	–	94.2%
CCC(N)C(O)c1ccc(O)c(O)c1 (configuration not stated)	112	–
CN1C[C@H](CO)C=C2c3cccc4[nH]cc(c34)C[C@H]21 [Lysergol]	–	92.6%
CC(N)Cc1c[nH]c2ccc(O)cc12 (stereo not drawn) [alpha-Methyl-5-hydroxytryptamine maleate]	113	–
CN(N=O)c1cc(O)ccc1O [Dephostatin]	94.8	–
C[C@H]1CCC[C@H](O)CCCCCc2cc(O)cc(O)c2C(=O)O1	100	–
COc1ccc(CCN2CCC(Nc3nc4ccccc4n3Cc3ccc(F)cc3)CC2)cc1	59.2	–
COc1ccc(CCN2CCC(Nc3nc4ccccc4n3Cc3ccc(F)cc3)CC2)cc1 [Astemizole]	73 ± 43	–
CC(=O)O[C@H]1C[C@H](O[C@H]2[C@@H](O)C[C@H](O[C@H]3[C@@H](O)C[C@H](O[C@H]4CC[C@@]5(C)[C@H](CC[C@@H]6[C@@H]5C[C@@H](O)[C@]5(C)[C@@H](C7=CC(=O)OC7)CC[C@]65O)C4)O[C@@H]3C)O[C@@H]2C)O[C@H](C)[C@H]1O[C@@H]1O[C@H](CO)[C@@H](O)[C@H](O)[C@H]1O [Lanatoside C]	110	–
CC(=O)O[C@H]1C[C@H](O[C@H]2[C@@H](O)C[C@H](O[C@H]3[C@@H](O)C[C@H](O[C@H]4CC[C@@]5(C)[C@H](CC[C@@H]6[C@@H]5C[C@@H](O)[C@]5(C)[C@@H](C7=CC(=O)OC7)CC[C@]65O)C4)O[C@@H]3C)O[C@@H]2C)O[C@H](C)[C@H]1O[C@@H]1O[C@H](CO)[C@@H](O)[C@H](O)[C@H]1O [lanatoside C]	–	97.1%
CC(=O)O[C@H]1C[C@H](O[C@H]2[C@@H](O)C[C@H](O[C@H]3[C@@H](O)C[C@H](O[C@H]4CC[C@@]5(C)[C@H](CC[C@@H]6[C@@H]5C[C@@H](O)[C@]5(C)[C@@H](C7=CC(=O)OC7)CC[C@]65O)C4)O[C@@H]3C)O[C@@H]2C)O[C@H](C)[C@H]1O[C@@H]1O[C@H](CO)[C@@H](O)[C@H](O)[C@H]1O	119	–
